In all, about 320,000 compounds went through this assay and about 2,100 (0.66%) were called active. This list was built around the results that the source calls inconclusive (neither active nor inactive); the mix of calls is not that of the screen. Calls follow the shape of the dose curve; as a rule, active = well fitted inhibition curve with a large enough effect in the signal ratio, with a control signal flat (not every such curve was filed as active); inconclusive = small, poorly fitted or top-dose-only effect, or effect the other way, or a change in a side signal; inactive = flat fitted curve, though single readings scatter; the % refers to the signal ratio. Potencies of inconclusive entries are doubtful fits and often do not repeat.
assay: qHTS Assay for Lipid Storage Modulators in Drosophila S3 Cells; settings: BODIPY lipid droplet fluorescence, 18-24 h, cells fed with added oleic acid; lipid storage change, negative = inhibition: at 46.1 µM (top of the series) unless noted
How it was run: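 Laser-scanning cytometry quantifies lipid droplet accumulation (500–530 nm total intensity; droplet/cell object ratio) in oleic acid-fed (400 uM added) Drosophila S3 cells treated with a concentration series. 20 uM Triacsin C defined 100% inhibition.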
% is scaled to controls: 0 for no effect and ±100 for the full control effect; potency is read from the fitted curve at half-maximal effect.

Lipid storage change, negative = inhibition, inconclusive:
O=C(CCn1c(=O)[nH]c2ccccc2c1=O)N1CCN(c2cccc(C(F)(F)F)c2)CC1 -10.5%
[O-]/C(=C(\C(=S)Nc1cccc2ccccc12)[n+]1ccccc1)c1ccc(Cl)s1 51.5% [activator]
COc1ccc(NC(=O)c2cccc(S(=O)(=O)N3CCCCC3)c2)c(OC)c1 -20.9%
O=C(Cc1cccc(NC(=O)C2CCCN(C(=O)C3CC3)C2)c1)Nc1cccc(C(=O)N2CCCC2)c1 (stereo not given) -10.3%
COc1ccc(CC(=O)c2ccc(OC3OC(CO)C(O)C(O)C3O)cc2O)cc1 (stereo not given) -18.7%
Fc1cccc(-c2oncc2-c2nnnn2-c2ccc(Cl)cc2)c1 2.68%
CC(=O)N1N=C(c2ccc(Br)cc2)OC1(C)CC(=O)Nc1ccccc1 (stereo not given) 0.65%
COc1ccc(/C=C/C(=O)Oc2ccc(/C=N/NC(=O)c3ccccc3)cc2)cc1OC -20%
COc1ccc(C(CNC(=O)CSc2ccccc2F)N2CCOCC2)cc1 (stereo not given) 3.18%
CC(=O)N1CCN(S(=O)(=O)c2cccc(C(=O)N(C)Cc3ccc(C)o3)c2)CC1
Cn1c(CN2CCOCC2)nc2cc(NC(=O)c3ccc(F)cc3)ccc21 55.7%
CC(C)[C@]1(c2ccc(Cl)cc2)ON(c2ccccc2C(F)(F)F)C1=O 9.86%
COC(=O)c1[nH]c2c(c1C)C(=O)CC(c1ccc(OC)c(OC)c1)C2 (stereo not given) -20.6%
CCc1ccc(NC(=O)COc2ccc3c(c2)OCO3)cc1 11.2%
O=C1Nc2ccccc2/C1=C/c1ccnc2ccccc12 -0.983%

Random excerpt: two records from the list, in no set order.
Lipid storage change, negative = inhibition, inconclusive:
O=C(Cc1cccc(NC(=O)C2CCCN(C(=O)C3CC3)C2)c1)Nc1cccc(C(=O)N2CCCC2)c1 (stereo not given) -10.3%
[O-]/C(=C(\C(=S)Nc1cccc2ccccc12)[n+]1ccccc1)c1ccc(Cl)s1 51.5% [activator]

Following part.

Potency, inconclusive:
COc1ccc(-c2csc(NC(=O)c3ccc(S(=O)(=O)N4CCc5ccccc5C4)cc3)n2)c(OC)c1 1.64 µM [activator, full curve, poor fit]
CCOC(=O)N/N=C/c1ccccc1OCc1ccc(Cl)cc1 14.6 µM [activator, partial curve]
COc1cc(OC)cc(C(=O)Nc2ccc(N3CCOCC3)cc2N2CCOCC2)c1 0.0046 µM [falling, full curve, poor fit]
COc1cc(CNc2ccc3[nH]c(=O)[nH]c3c2)ccc1OCc1ccc(C)cc1 29.1 µM [rising, single point]
O=C(Nc1ccc(F)cc1)c1ccc2c(c1)S(=O)(=O)N=C1CCCCCN12 6.51 µM [activator, single point]

Reference: PubChem BioAssay AID2685 (National Center for Advancing Translational Sciences (NCATS), 2010)
